In patent US20180078649:
Where cells or extracts were used, other partners may take part. For part of these data: A negative result means that nothing was seen under these conditions. For part of these data: Construct, isoform or probe ends are uncertain for at least one entry.

Tests used:
[1] = biological target: CD38 (Homo sapiens) (UniProt P28907); experiment: pull-down; details: biotin aptamer precipitation, anti-CD38 western, 4 C, SELEX binding buffer, specific to MM1S versus HDLM2 lysate, protein in an extract, protein details: endogenous CD38 in MM1S RIPA cell lysate, single-stranded DNA
[2] = biological target: CD38 (Homo sapiens) (UniProt P28907); experiment: flow cytometry; details: 40-mer core lost cell binding to MM1S; protein on the cell surface; label: Cy3; single-stranded DNA; variant of Aptamer#1 (full length)

“TCCAGAGTGACGCAGCAGCCAACGTGCTTTCTACCTTATTTTCCGTCACTCTCACTCTGGA [Aptamer#1S (truncated 61-mer)]”: binds ([1]; label: Cy3 (flow cytometry) or biotin (pulldown), variant of Aptamer#1 (full length)).
“GCCAACGTGCTTTCTACCTTATTTTCCGTCACTCTCACTC [Aptamer#1 40-mer core]”: no binding [2].
“ATCCAGAGTGACGCAGCAGCCAACGTGCTTTCTACCTTATTTTCCGTCACTCTCACTCTGGACACGGTGGCTTAGT [Aptamer#1 (full length)]”: binds ([1]; label: 5'-Cy3 (flow cytometry) or biotin (pulldown)).
